Our source for the binding values is paper PMC3826667, “S100A9 protein is a novel ligand for the CD85j receptor and its interaction is implicated in the control of HIV-1 replication by NK cells” (Retrovirology, 2013).

Chains of the proteins cited; added tags and fusions are not shown. Residues count along the entry.
UniProt Q8NHL6, residues 24-461: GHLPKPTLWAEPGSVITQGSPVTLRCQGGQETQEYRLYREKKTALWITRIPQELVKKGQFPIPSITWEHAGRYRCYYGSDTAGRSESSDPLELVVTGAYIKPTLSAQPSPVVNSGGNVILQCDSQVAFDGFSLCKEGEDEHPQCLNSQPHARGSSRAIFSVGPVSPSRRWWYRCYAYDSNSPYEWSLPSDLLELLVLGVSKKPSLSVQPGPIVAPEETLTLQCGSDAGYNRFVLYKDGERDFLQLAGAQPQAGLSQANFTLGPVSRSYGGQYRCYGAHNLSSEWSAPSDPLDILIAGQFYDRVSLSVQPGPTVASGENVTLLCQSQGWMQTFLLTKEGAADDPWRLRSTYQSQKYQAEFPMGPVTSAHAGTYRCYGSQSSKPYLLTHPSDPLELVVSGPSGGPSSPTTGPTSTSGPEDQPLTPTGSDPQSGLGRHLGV

These are yes or no findings as the source states them, for the method shown. For some of these results: In cells and extracts the contact can be indirect. Some binding calls cover weakened binding; strength is not graded here.

The target in assay [1] is T1, recombinant CD85j-Fc fusion protein (human, UniProt Q8NHL6 24-461).
T1 construct: CD85j (LILRB1, ILT2, LIR-1), human; also called CD85j fusion protein; LILRB1; source: bought: R&D System
Nature of the assay: SELDI-TOF-MS protein chip array; PS10 protein chip incubated with CD85j-Fc at 500 ug/ml in PBS, 4°C, 18 h; samples (MDDC lysates and eluted fractions) applied 2 h at room temperature; washes with 1 mM NaCl, 5 mM HEPES; captured proteins detected as mass peaks; only the target purified.

The target of assay [2] is T1, recombinant CD85j-Fc fusion protein. In words: pull-down; CD85j-Fc covalently immobilised on an amine-reactive gel column (ProFound Co-immunoprecipitation kit); MDDC lysates (0.5% Triton X-100; CD85j and HLA class-I blocked with mAbs before lysis) loaded, washed, eluted; eluates on non-reducing 4-12% NuPAGE with silver staining, protein sequencing of bands and immunoblot; only the target purified. In general terms: Immunoblotting shows a protein as a band on a membrane.

Assay [3] shares this target. Nature of the assay: ELISA; CD85j-Fc-coated wells, increasing concentrations of S100A8 monomer, S100A9 monomer or S100A9 tetramer, 2 h at 37°C; detected with HRP goat anti-GST polyclonal antibody; both purified.

B1: S100A9 monomer (14 kDa) of MDDC (protein, UniProt P06702 1-114)
chain: MTCKMSQLERNIETIINTFHQYSVKLGHPDTLNQGEFKELVRKDLQNFLKKENKNEKVIEHIMEDLDTNADKQLSFEEFIMLMARLTWASHEKMHEGDEGPGHHHKPGLGEGTP
For the molecule B1, the binding result in assay [1] and in assay [2] was “binds” throughout.

B2: S100A9 tetramer protein (protein, UniProt P06702 1-114)
chain: MTCKMSQLERNIETIINTFHQYSVKLGHPDTLNQGEFKELVRKDLQNFLKKENKNEKVIEHIMEDLDTNADKQLSFEEFIMLMARLTWASHEKMHEGDEGPGHHHKPGLGEGTP
In the case of B2, the binding entry in assay [3] is recorded as “binds”.

B3: recombinant GST-tagged human S100A8 monomer protein (natural protein, UniProt P05109 1-93, looked up)
chain: MLTELEKALNSIIDVYHKYSLIKGNFHAVYRDDLKKLLETECPQYIRKKGADVWFKELDINTDGAVNFQEFLILVIKMGVAAHKKSHEESHKE
notes: S100A8, human, recombinant, GST-tagged; source: bought: Tebu-bio
For B3, the binding result in assay [1] and in assay [2] was “binds” in each case.

B4: (S100A8/S100A9)2 tetramer (49 kDa) of MDDC (complex, UniProt P05109 1-93; P06702 1-114)
chain 1: MLTELEKALNSIIDVYHKYSLIKGNFHAVYRDDLKKLLETECPQYIRKKGADVWFKELDINTDGAVNFQEFLILVIKMGVAAHKKSHEESHKE
chain 2: MTCKMSQLERNIETIINTFHQYSVKLGHPDTLNQGEFKELVRKDLQNFLKKENKNEKVIEHIMEDLDTNADKQLSFEEFIMLMARLTWASHEKMHEGDEGPGHHHKPGLGEGTP
For B4, in assay [2], the binding entry is recorded as “binds”.

B5: (S100A8)2/(S100A9) trimer (32 kDa) of MDDC (complex, UniProt P05109 1-93; P06702 1-114)
chain 1: MLTELEKALNSIIDVYHKYSLIKGNFHAVYRDDLKKLLETECPQYIRKKGADVWFKELDINTDGAVNFQEFLILVIKMGVAAHKKSHEESHKE
chain 2: MTCKMSQLERNIETIINTFHQYSVKLGHPDTLNQGEFKELVRKDLQNFLKKENKNEKVIEHIMEDLDTNADKQLSFEEFIMLMARLTWASHEKMHEGDEGPGHHHKPGLGEGTP
B5: the binding result in assay [1] and in assay [2] was “binds” in each case.

B6: S100A8/S100A9 heterodimer (26 kDa) of MDDC (complex, UniProt P05109 1-93; P06702 1-114)
chain 1: MLTELEKALNSIIDVYHKYSLIKGNFHAVYRDDLKKLLETECPQYIRKKGADVWFKELDINTDGAVNFQEFLILVIKMGVAAHKKSHEESHKE
chain 2: MTCKMSQLERNIETIINTFHQYSVKLGHPDTLNQGEFKELVRKDLQNFLKKENKNEKVIEHIMEDLDTNADKQLSFEEFIMLMARLTWASHEKMHEGDEGPGHHHKPGLGEGTP
For the molecule B6, the binding result in assay [1] and in assay [2] was “binds” in each case.
